The target of test [1] is c-Myc (human (endogenous in PC-3)) (UniProt P01106). The experiment in a line: co-IP; total lysates of PC-3 cells (transfected with pre-miR negative control or pre-miR-34a for 72 h); precleared lysate incubated with anti-c-Myc antibody or normal rabbit IgG and protein A/G-Sepharose beads overnight at 4°C; lysis and wash buffer 250 mM NaCl, 50 mM HEPES pH 7.5, 0.1% Nonidet P40, 5 mM EDT, protease inhibitors; Western blot. (In general: Immunoblotting shows a protein as a band on a membrane.)

The chains behind the UniProt entries cited, without tags or fusion partners. Where a name states a change or a piece, a line headed by the entry shows the natural chain unless it says otherwise.
UniProt P01106: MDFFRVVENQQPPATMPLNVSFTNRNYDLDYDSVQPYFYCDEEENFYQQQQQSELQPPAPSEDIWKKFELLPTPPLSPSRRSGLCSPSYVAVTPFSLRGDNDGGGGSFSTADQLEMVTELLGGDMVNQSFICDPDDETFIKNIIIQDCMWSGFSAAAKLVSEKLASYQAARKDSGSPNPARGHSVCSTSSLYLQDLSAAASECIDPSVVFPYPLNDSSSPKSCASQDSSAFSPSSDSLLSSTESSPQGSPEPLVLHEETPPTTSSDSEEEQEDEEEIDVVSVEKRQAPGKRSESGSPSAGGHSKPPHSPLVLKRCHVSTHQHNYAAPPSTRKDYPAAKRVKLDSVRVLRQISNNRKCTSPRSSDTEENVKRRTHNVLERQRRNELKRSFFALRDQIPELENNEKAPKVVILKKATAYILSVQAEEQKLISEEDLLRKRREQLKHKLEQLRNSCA
UniProt O60563: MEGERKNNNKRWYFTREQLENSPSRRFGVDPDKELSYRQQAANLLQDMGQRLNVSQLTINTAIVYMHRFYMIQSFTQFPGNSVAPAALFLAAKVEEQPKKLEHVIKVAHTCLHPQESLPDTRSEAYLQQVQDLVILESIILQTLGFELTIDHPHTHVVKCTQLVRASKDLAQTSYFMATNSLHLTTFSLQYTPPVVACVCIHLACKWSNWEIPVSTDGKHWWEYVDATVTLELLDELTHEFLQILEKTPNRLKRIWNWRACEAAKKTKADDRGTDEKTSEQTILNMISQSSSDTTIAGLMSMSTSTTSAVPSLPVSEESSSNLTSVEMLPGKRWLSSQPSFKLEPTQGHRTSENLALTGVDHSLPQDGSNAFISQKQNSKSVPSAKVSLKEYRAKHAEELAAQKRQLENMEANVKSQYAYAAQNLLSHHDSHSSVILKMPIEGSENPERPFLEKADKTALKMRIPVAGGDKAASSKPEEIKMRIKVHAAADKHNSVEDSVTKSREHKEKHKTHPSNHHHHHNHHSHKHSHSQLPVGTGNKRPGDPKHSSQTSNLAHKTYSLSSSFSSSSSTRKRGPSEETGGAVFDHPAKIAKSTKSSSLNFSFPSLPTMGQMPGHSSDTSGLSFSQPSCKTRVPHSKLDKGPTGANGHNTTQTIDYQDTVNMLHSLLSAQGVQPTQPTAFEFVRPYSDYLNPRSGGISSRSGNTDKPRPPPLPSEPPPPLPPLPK

Test [2] has the same target. The test is described as above. This is another data set of the same source.

Like-named read-outs stand apart in the source and are kept apart here. Results are given in words; binding and its absence hold for the method and conditions named. In cells and extracts the contact can be indirect. Some results given as binding are weak or reduced against the parent protein; the word gives no strength.

Regarding “positive transcription elongation factor b (P-TEFb) (from UniProt O60563 1-726; P50750 1-372) (complex)”, in test [1], the binding entry was “binds”.

B1: Miz1 (protein, UniProt Q13105 1-803)
chain: MDFPQHSQHVLEQLNQQRQLGLLCDCTFVVDGVHFKAHKAVLAACSEYFKMLFVDQKDVVHLDISNAAGLGQVLEFMYTAKLSLSPENVDDVLAVATFLQMQDIITACHALKSLAEPATSPGGNAEALATEGGDKRAKEEKVATSTLSRLEQAGRSTPIGPSRDLKEERGGQAQSAASGAEQTEKADAPREPPPVELKPDPTSGMAAAEAEAALSESSEQEMEVEPARKGEEEQKEQEEQEEEGAGPAEVKEEGSQLENGEAPEENENEESAGTDSGQELGSEARGLRSGTYGDRTESKAYGSVIHKCEDCGKEFTHTGNFKRHIRIHTGEKPFSCRECSKAFSDPAACKAHEKTHSPLKPYGCEECGKSYRLISLLNLHKKRHSGEARYRCEDCGKLFTTSGNLKRHQLVHSGEKPYQCDYCGRSFSDPTSKMRHLETHDTDKEHKCPHCDKKFNQVGNLKAHLKIHIADGPLKCRECGKQFTTSGNLKRHLRIHSGEKPYVCIHCQRQFADPGALQRHVRIHTGEKPCQCVMCGKAFTQASSLIAHVRQHTGEKPYVCERCGKRFVQSSQLANHIRHHDNIRPHKCSVCSKAFVNVGDLSKHIIIHTGEKPYLCDKCGRGFNRVDNLRSHVKTVHQGKAGIKILEPEEGSEVSVVTVDDMVTLATEALAATAVTQLTVVPVGAAVTADETEVLKAEISKAVKQVQEEDPNTHILYACDSCGDKFLDANSLAQHVRIHTAQALVMFQTDADFYQQYGPGGTWPAGQVLQAGELVFRPRDGAEGQPALAETSPTAPECPPPAE
As for B1, the binding result in test [2] is recorded as “binds”.

The values above are taken from publication PMC3250472.
